The other results are listed elsewhere or left out. Residues, ends and D or L forms follow the SMILES beside them. *: point of attachment. Cbz = O=C(OCc1ccccc1)*
Key:
Assay in all cases: log2 fold change, soluble protein after heating vs DMSO (PISA); higher = thermal stabilisation; K562 cells, 10 uM, 30 min; active = over 0.2 and 3.5 SD of the protein, either way, in both replicates (recomputed)
erlotinib = compound: C#Cc1cccc(Nc2ncnc3cc(OCCOC)c(OCCOC)cc23)c1 [erlotinib]
How it was run: (§1)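 K562 cells (2×10^6 cells/mL) were treated with 10 μM compound for 30 min, and aliquots were heated for 3 min over 48°C-58°C. Pooled aliquots were extracted in PBS with 0.5% NP-40 at 4°C, and the supernatant after 21,000xg for 90 min was measured by TMTpro 16plex LC-MS/MS with channel sums equalised. Reported thermal stability, relative to control samples and from duplicates, is a log2 fold change.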

Protein sequences, listed by entry. Tags and fused reporters are not part of them. Lines headed by an entry give the natural chain unless they say otherwise; changes in a name come on top.
UniProt P21399: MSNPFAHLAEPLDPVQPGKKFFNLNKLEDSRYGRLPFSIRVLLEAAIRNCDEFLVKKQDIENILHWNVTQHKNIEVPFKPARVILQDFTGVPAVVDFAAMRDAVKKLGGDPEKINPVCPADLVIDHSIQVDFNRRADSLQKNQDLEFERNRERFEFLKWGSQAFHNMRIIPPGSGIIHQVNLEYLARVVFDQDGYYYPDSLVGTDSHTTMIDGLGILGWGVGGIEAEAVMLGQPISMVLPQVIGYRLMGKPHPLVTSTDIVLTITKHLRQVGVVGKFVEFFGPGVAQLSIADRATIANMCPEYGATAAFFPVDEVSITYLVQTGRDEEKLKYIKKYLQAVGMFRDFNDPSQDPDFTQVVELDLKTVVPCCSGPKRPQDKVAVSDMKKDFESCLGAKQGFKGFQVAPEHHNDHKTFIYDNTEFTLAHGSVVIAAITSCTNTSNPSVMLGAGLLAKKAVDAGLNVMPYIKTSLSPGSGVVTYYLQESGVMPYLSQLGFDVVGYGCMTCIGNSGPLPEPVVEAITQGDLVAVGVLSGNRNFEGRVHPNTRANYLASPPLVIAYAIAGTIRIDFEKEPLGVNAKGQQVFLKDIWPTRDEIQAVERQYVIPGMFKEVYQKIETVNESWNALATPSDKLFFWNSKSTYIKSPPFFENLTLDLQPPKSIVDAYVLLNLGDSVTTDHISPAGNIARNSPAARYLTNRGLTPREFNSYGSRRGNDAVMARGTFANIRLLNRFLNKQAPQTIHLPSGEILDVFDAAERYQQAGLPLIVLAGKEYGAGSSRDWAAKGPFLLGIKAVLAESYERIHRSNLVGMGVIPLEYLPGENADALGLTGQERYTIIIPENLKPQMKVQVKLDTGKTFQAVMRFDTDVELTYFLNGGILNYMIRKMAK
UniProt P42025, whole entry, looked up: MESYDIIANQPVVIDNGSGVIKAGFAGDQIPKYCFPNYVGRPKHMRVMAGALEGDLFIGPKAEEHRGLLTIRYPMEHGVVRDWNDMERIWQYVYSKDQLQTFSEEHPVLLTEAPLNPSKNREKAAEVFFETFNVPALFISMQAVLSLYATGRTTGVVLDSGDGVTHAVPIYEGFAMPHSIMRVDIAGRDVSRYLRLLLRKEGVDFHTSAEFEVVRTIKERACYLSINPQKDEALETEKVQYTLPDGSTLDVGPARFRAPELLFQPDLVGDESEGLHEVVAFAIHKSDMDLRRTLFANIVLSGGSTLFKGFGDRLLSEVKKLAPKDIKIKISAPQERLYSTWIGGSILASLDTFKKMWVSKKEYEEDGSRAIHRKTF
UniProt Q9NYB9: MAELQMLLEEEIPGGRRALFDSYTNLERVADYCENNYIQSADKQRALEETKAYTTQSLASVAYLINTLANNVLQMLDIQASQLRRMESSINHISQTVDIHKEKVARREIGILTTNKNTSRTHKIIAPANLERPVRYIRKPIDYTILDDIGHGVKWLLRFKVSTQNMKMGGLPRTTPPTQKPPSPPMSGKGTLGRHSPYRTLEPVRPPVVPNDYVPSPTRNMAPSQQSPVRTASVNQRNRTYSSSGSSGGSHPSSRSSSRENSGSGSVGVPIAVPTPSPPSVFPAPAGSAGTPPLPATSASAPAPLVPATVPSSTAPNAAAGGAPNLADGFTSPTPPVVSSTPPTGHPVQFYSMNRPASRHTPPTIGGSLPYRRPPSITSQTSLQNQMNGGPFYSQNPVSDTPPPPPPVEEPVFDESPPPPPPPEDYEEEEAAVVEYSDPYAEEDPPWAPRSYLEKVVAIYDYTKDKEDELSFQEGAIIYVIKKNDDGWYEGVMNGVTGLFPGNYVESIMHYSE
UniProt O75027: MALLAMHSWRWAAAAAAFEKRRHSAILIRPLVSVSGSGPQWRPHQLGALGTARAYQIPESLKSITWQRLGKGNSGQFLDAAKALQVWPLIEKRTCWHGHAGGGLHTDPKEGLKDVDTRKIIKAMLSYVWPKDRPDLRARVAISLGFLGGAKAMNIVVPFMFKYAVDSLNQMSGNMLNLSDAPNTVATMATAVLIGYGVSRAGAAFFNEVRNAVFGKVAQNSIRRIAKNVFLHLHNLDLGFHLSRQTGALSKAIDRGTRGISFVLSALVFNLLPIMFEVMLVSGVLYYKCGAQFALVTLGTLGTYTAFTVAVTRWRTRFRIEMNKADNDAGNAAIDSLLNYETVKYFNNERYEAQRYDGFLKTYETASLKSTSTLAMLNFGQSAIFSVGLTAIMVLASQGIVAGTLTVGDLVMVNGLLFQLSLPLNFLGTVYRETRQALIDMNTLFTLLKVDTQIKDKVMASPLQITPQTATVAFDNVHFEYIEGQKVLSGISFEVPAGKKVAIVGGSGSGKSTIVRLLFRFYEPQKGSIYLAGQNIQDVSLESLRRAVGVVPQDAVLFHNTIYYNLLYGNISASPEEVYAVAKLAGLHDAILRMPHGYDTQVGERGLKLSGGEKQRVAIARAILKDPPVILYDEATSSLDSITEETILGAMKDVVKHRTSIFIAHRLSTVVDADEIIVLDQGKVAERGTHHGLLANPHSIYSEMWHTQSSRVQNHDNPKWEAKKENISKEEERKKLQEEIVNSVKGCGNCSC
UniProt Q6DHV7: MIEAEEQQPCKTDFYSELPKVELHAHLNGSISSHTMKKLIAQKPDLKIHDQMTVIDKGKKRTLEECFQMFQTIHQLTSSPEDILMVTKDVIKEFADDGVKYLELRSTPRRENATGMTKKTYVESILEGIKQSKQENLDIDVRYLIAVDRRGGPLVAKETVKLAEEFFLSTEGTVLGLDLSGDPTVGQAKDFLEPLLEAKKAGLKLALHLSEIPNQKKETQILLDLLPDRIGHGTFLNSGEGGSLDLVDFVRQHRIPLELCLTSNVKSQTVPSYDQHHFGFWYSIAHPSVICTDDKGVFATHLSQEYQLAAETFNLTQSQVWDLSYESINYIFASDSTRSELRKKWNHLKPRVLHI
UniProt Q9H7C9: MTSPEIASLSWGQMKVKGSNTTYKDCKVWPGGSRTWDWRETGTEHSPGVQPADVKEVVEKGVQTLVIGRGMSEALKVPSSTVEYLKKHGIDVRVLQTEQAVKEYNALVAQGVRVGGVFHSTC
UniProt Q9UKU7: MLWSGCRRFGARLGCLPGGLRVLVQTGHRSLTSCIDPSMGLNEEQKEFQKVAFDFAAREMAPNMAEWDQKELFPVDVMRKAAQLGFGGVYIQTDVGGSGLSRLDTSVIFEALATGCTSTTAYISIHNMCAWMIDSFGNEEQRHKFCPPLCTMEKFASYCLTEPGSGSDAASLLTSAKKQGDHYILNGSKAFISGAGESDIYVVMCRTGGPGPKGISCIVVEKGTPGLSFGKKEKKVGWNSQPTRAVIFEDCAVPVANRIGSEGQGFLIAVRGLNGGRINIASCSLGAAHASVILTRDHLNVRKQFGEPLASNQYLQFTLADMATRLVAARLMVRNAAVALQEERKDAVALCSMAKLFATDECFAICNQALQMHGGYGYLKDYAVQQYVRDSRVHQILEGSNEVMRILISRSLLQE
UniProt O95870: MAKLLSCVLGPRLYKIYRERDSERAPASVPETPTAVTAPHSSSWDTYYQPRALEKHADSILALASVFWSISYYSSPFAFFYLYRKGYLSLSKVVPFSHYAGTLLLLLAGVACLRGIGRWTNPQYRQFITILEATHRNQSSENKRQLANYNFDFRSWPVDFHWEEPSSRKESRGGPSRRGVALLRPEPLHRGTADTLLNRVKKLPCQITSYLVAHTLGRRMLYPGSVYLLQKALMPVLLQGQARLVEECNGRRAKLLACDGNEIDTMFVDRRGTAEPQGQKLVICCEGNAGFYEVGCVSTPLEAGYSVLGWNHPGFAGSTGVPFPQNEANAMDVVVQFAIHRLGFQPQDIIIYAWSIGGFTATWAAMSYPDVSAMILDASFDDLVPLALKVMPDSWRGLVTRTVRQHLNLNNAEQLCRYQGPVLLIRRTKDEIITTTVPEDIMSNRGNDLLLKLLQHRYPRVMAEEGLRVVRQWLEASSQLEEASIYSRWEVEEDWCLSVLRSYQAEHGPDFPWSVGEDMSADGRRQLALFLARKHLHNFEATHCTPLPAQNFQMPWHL
UniProt Q562R1, whole entry, looked up: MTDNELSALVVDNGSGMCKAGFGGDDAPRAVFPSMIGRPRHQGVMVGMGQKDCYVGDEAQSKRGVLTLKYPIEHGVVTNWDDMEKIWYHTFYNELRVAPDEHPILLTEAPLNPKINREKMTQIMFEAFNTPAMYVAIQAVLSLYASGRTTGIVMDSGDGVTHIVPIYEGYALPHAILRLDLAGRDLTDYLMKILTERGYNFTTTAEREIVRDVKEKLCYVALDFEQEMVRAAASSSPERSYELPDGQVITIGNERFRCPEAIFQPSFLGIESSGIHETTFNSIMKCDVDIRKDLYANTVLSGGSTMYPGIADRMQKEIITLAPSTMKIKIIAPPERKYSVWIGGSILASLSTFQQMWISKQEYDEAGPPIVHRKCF
UniProt Q9NP58: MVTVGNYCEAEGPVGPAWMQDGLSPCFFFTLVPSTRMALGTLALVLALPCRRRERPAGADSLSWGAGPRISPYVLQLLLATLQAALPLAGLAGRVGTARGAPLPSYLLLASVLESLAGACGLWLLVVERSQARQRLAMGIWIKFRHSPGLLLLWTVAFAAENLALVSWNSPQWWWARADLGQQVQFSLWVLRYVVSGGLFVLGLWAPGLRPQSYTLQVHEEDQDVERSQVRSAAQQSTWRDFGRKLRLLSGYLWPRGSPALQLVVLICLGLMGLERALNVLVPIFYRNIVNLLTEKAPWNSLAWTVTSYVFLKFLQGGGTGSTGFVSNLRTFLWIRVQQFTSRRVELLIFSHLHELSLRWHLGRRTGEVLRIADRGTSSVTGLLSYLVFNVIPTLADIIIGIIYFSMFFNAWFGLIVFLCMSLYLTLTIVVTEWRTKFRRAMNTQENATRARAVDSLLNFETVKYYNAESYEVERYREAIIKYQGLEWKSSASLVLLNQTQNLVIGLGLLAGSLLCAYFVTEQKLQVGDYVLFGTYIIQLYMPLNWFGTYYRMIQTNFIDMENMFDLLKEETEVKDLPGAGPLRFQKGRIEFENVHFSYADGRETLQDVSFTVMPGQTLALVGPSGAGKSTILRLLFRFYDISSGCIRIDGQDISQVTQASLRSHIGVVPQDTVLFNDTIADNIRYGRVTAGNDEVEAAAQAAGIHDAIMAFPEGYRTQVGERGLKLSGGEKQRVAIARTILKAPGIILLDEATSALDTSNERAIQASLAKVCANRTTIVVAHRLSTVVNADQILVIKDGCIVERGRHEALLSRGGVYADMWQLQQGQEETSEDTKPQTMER
UniProt Q9ULC5: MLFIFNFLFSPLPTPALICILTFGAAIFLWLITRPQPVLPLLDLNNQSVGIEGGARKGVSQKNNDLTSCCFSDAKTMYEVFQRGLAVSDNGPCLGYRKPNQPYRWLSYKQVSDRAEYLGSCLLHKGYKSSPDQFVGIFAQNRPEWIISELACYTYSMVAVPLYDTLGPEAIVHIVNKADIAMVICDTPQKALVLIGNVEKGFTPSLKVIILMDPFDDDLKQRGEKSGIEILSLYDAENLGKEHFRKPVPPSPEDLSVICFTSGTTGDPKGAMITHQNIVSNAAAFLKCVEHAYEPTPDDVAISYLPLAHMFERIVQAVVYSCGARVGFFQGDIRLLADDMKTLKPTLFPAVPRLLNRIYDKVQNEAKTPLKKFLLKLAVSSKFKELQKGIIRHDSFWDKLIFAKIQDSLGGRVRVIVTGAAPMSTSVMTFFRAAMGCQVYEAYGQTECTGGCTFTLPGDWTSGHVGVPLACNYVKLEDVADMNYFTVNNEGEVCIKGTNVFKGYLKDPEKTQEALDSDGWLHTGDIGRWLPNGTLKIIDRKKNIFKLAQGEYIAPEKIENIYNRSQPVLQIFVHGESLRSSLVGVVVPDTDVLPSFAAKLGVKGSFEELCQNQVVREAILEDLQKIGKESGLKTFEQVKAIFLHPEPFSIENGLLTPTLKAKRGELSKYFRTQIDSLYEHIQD
UniProt P33121: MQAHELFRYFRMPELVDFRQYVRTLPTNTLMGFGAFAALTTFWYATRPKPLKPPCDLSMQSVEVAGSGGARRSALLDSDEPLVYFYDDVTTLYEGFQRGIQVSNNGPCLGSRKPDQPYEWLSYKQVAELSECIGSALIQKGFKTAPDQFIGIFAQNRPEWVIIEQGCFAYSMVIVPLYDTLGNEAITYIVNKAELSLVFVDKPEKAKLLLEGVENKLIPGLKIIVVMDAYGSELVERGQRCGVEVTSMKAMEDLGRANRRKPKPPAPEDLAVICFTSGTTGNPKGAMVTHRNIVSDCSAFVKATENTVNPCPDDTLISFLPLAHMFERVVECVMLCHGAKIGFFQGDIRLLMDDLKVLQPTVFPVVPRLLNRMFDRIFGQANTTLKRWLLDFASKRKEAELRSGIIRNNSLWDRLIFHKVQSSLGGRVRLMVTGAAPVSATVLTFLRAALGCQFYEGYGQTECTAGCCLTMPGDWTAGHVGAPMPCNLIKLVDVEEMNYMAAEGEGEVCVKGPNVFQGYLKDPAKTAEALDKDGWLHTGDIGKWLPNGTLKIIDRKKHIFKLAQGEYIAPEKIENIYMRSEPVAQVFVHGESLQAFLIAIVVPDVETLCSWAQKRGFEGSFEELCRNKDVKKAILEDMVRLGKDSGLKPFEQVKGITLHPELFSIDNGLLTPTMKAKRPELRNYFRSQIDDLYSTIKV

[1] = compound: C/C(=N\NC(=O)C1=CC(=CC=C1)S(=O)(=O)N2CCOCC2)/C3=C(C=CC(=C3)Cl)O
How it was run: as §1

[2] = compound: C1=CC(=C(C=C1Cl)C2=NC3=NC=CN=C3C(=N2)NC4=CC=NC=C4)F
How it was run: as §1

[3] = compound: C1=CC(=CC=C1C2=NC3=C(N2)C=C(C=C3)C(=O)N)OC4=CC=C(C=C4)Cl
How it was run: as §1

[4] = compound: C1=CC2=C(C=CC(=C2)/C=C\3/C(=O)NC(=NCC4=CC=CS4)S3)N=C1
How it was run: as §1

[5] = compound: C1=CC2=NC=CN=C2C=C1/C=C/3\C(=O)NC(=O)S3
How it was run: as §1

[6] = compound: C1=CC=C(C=C1)C2=NC(=C(N2)C3=CC=NC=C3)C4=CC(=C(C=C4)Cl)O
How it was run: as §1

[7] = compound: C1=CC=C2C(=C1)C3=NNC4=CC=CC(=C43)C2=O
How it was run: as §1

[8] = compound: C1CCN(C1)C(=O)NC2=CC=CC(=C2)NC3=NC=C(C(=N3)NCCC4=CN=CN4)Br
How it was run: as §1

[9] = compound: C1CN(CCC1(CC2=CC=C(C=C2)Cl)N)C3=NC=NC4=C3C=CN4
How it was run: as §1

IRAK-1-4 Inhibitor I = compound: C1COCCN1CCN2C3=CC=CC=C3N=C2NC(=O)C4=CC(=CC=C4)[N+](=O)[O-] [IRAK-1-4 Inhibitor I]
How it was run: as §1

ibrutinib = compound: C=CC(=O)N1CCC[C@@H](n2nc(-c3ccc(Oc4ccccc4)cc3)c3c(N)ncnc32)C1 [ibrutinib]
How it was run: as §1

[10] = compound: CC(=O)c1cnc2ccc(-c3cc(Cl)c(O)c(Cl)c3)nc2c1N[C@H]1CC[C@H](CN(C)C)CC1
How it was run: as §1

ralimetinib = compound: CC(C)(C)Cn1c(N)nc2ccc(-c3[nH]c(C(C)(C)C)nc3-c3ccc(F)cc3)nc21 [ralimetinib]
How it was run: as §1

[11] = compound: CC(C)(O)CC(=O)NCCn1ccc2ncnc(Nc3ccc(Oc4cccc(C(F)(F)F)c4)c(Cl)c3)c21
How it was run: as §1

[12] = compound: CC(C)C1=C2N=C(C=C(N2N=C1)NCC3=CC=CC=C3)NCCCCCCN
How it was run: as §1

[13] = compound: CC(C)C[C@@H](C=O)NC(=O)[C@H](CC(C)C)NC(=O)[C@H](CC(C)C)NC(=O)OCc1ccccc1
How it was run: as §1

pinometostat = compound: CC(C)N(C[C@H]1O[C@@H](n2cnc3c(N)ncnc32)[C@H](O)[C@@H]1O)[C@H]1C[C@@H](CCc2nc3cc(C(C)(C)C)ccc3[nH]2)C1 [pinometostat]
How it was run: as §1

[14] = compound: CC1=C(C(CC(=O)N1)C2=CC=C(C=C2)C(F)(F)F)C(=O)NC3=C(C=C4C(=C3)C=NN4)F
How it was run: as §1

[15] = compound: CC1=C(C2=C(C=C1)C(=O)C3=CC=CC=C3N2CCCN)C
How it was run: as §1

Measured: log2 fold change

ACO1 (UniProt P21399)
inactive: erlotinib 0.023 | [1] 0.011 | [2] 0.083 | [3] -0.011 | [4] -0.028 | [5] -0.099 | [6] 0.047 | [7] 0.005 | [8] 0.024 | [9] 0.044 | IRAK-1-4 Inhibitor I 0.059 | ibrutinib 0.016 | [10] 0.013 | ralimetinib 0.044 | [11] -0.002 | [12] 0.002 | [13] -0.071 | pinometostat -0.021 | [14] -0.007 | [15] -0.018

ACTR1B (UniProt P42025)
inactive: erlotinib -0.13 | [1] -0.048 | [2] -0.145 | [3] 0.041 | [4] 0.02 | [5] 0.002 | [6] -0.037 | [7] -0.017 | [8] -0.02 | [9] 0.011 | IRAK-1-4 Inhibitor I 0.066 | ibrutinib 0.003 | [10] -0.041 | ralimetinib 0.07 | [11] -0.065 | [12] 0.042 | [13] -0.071 | pinometostat 0.003 | [15] -0.013

ABI2 (UniProt Q9NYB9)
inactive: erlotinib -0.04 | [1] 0.022 | [2] 0.017 | [3] -0.025 | [4] 0.016 | [5] -0.135 | [6] 0.007 | [7] -0.025 | [8] 0.027 | [9] -0.014 | IRAK-1-4 Inhibitor I 0.018 | ibrutinib 0.043 | [10] -0.11 | ralimetinib -0.043 | [11] -0.008 | [12] -0.069 | [13] -0.01 | pinometostat -0.072 | [14] -0.036 | [15] 0.061

ABCB7 isoform 2 (UniProt O75027)
inactive: erlotinib -0.028 | [1] 0.014 | [2] 0.089 | [3] -0.035 | [4] 0.044 | [5] 0.023 | [6] 0.11 | [7] -0.007 | [8] 0.012 | [9] 0.062 | IRAK-1-4 Inhibitor I 0.057 | ibrutinib -0.028 | [10] -0.02 | ralimetinib -0.058 | [11] -0.038 | [12] 0.005 | [13] -0.011 | pinometostat 0.03 | [14] 0.006 | [15] 0.009

ADAL (UniProt Q6DHV7)
inactive: erlotinib 0.018 | [1] -0.048 | [2] 0.033 | [3] 0.049 | [4] -0.007 | [5] 0.05 | [6] 0.018 | [7] 0.013 | [8] -0.004 | [9] 0.061 | IRAK-1-4 Inhibitor I 0.119 | ibrutinib -0.038 | [10] 0.008 | ralimetinib 0.049 | [11] -0.065 | [12] 0.092 | [13] -0.049 | pinometostat -0.081 | [14] -0.033 | [15] 0.018

ABCB10 (UniProt Q9NRK6)
inactive: erlotinib 0.012 | [1] 0.002 | [2] 0.061 | [3] -0.019 | [4] 0.017 | [5] 0.02 | [6] 0.009 | [7] 0.002 | [8] 0.011 | [9] 0.033 | IRAK-1-4 Inhibitor I 0.022 | ibrutinib -0.018 | [10] -0.002 | ralimetinib -0.037 | [11] 0.007 | [12] 0.011 | [13] -0.006 | pinometostat -0.054 | [14] 0.003 | [15] 0.023

AAMDC (UniProt Q9H7C9)
inactive: erlotinib -0.001 | [1] 0.052 | [2] 0.226 | [3] -0.02 | [4] 0.142 | [5] 0.062 | [6] 0.024 | [7] -0.001 | [8] -0.042 | [9] 0.016 | IRAK-1-4 Inhibitor I -0.054 | ibrutinib 0.001 | [10] 0.001 | ralimetinib -0.02 | [11] -0.155 | [12] 0.076 | [13] -0.026 | pinometostat -0.1 | [14] -0.007 | [15] 0.222

ACAD8 (UniProt Q9UKU7)
inactive: erlotinib 0.028 | [1] 0.014 | [2] 0.017 | [3] -0.017 | [4] -0.072 | [5] 0.148 | [6] -0.042 | [7] 0.005 | [8] -0.066 | [9] -0.001 | IRAK-1-4 Inhibitor I 0.145 | ibrutinib -0.096 | [10] 0.05 | ralimetinib -0.056 | [11] 0.039 | [12] 0.086 | [13] 0.029 | pinometostat 0.142 | [14] 0.066 | [15] 0.024

2 consecutive records from above, quoted:
AAMDC (UniProt Q9H7C9)
inactive: erlotinib -0.001 | [1] 0.052 | [2] 0.226 | [3] -0.02 | [4] 0.142 | [5] 0.062 | [6] 0.024 | [7] -0.001 | [8] -0.042 | [9] 0.016 | IRAK-1-4 Inhibitor I -0.054 | ibrutinib 0.001 | [10] 0.001 | ralimetinib -0.02 | [11] -0.155 | [12] 0.076 | [13] -0.026 | pinometostat -0.1 | [14] -0.007 | [15] 0.222

ACAD8 (UniProt Q9UKU7)
inactive: erlotinib 0.028 | [1] 0.014 | [2] 0.017 | [3] -0.017 | [4] -0.072 | [5] 0.148 | [6] -0.042 | [7] 0.005 | [8] -0.066 | [9] -0.001 | IRAK-1-4 Inhibitor I 0.145 | ibrutinib -0.096 | [10] 0.05 | ralimetinib -0.056 | [11] 0.039 | [12] 0.086 | [13] 0.029 | pinometostat 0.142 | [14] 0.066 | [15] 0.024

Continued.

ABCE1 (UniProt P61221)
inactive: erlotinib -0.011 | [1] -0.02 | [2] 0.047 | [3] -0.006 | [4] -0.029 | [5] 0.022 | [6] -0.018 | [7] -0.007 | [8] 0.012 | [9] 0.018 | IRAK-1-4 Inhibitor I 0.004 | ibrutinib 0.01 | [10] 0.04 | ralimetinib -0.045 | [11] -0.031 | [12] 0.083 | [13] -0.06 | pinometostat -0.069 | [14] 0.026 | [15] -0.014

ACADSB (UniProt P45954)
inactive: erlotinib -0.039 | [1] 0.075 | [2] 0.043 | [3] 0.001 | [4] 0.047 | [5] 0.001 | [6] 0.058 | [7] 0.043 | [8] 0.034 | [9] 0.045 | IRAK-1-4 Inhibitor I 0.057 | ibrutinib 0.066 | [10] -0.06 | ralimetinib 0 | [11] -0.038 | [12] 0.052 | [13] -0.057 | pinometostat -0.072 | [14] -0.098 | [15] 0.072

ABHD12 isoform 2 (UniProt Q8N2K0)
inactive: erlotinib 0.009 | [1] -0.027 | [2] -0.078 | [3] 0.068 | [4] 0 | [5] 0.03 | [6] -0.022 | [7] -0.045 | [8] -0.037 | [9] 0.006 | IRAK-1-4 Inhibitor I 0.007 | ibrutinib -0.023 | [10] -0.005 | ralimetinib -0.013 | [11] -0.013 | [12] -0.002 | [13] 0.082 | pinometostat 0.05 | [14] -0.005 | [15] 0.014

ABCA7 (UniProt Q8IZY2)
inactive: erlotinib 0.007 | [1] -0.254 | [2] -0.012 | [3] 0.036 | [4] -0.07 | [5] 0.035 | [7] 0.142 | ibrutinib 0.23 | [10] 0 | [11] -0.377 | [12] -0.346 | [14] 0.067

ABHD16A (UniProt O95870)
active: [11] 0.361 | [12] 0.656
inactive: erlotinib -0.036 | [1] 0.02 | [2] -0.048 | [3] 0.161 | [4] 0.208 | [5] -0.094 | [6] 0.036 | [7] 0.009 | [8] -0.005 | [9] 0.023 | IRAK-1-4 Inhibitor I -0.039 | ibrutinib 0.043 | [10] -0.026 | ralimetinib 0.047 | [13] 0.064 | pinometostat -0.009 | [15] 0.012

ACTBL2 (UniProt Q562R1)
inactive: erlotinib -0.247 | [1] -0.805 | [2] 0.093 | [3] 0.025 | [4] -0.419 | [5] -0.215 | [6] 0.047 | [7] 0.147 | ibrutinib 0 | [10] -0.156 | ralimetinib 0.351 | [11] 0.132 | [12] 0.372 | [13] 0.195

ABCB6 (UniProt Q9NP58)
inactive: erlotinib 0.017 | [1] 0.045 | [2] 0.029 | [3] 0.037 | [4] -0.003 | [5] 0.069 | [6] 0.087 | [7] -0.056 | [8] -0.057 | [9] 0.023 | IRAK-1-4 Inhibitor I -0.018 | ibrutinib 0.003 | [10] 0.021 | ralimetinib 0.051 | [11] -0.073 | [13] -0.007 | pinometostat 0.037 | [15] 0.065
active: [12] -0.489

ACSL5 isoform 3 (UniProt Q9ULC5)
active: [12] -0.354
inactive: erlotinib 0.044 | [1] 0.039 | [2] -0.021 | [3] 0.028 | [4] -0.029 | [5] -0.011 | [6] -0.007 | [7] 0.047 | [8] -0.003 | [9] 0.061 | IRAK-1-4 Inhibitor I 0.02 | ibrutinib 0.03 | [10] -0.017 | ralimetinib -0.03 | [11] 0.014 | [13] -0.001 | pinometostat 0.095 | [15] 0.088

ACSL1 (UniProt P33121)
active: [12] -0.243
inactive: erlotinib -0.015 | [1] 0.067 | [2] 0.017 | [3] 0.03 | [4] 0.005 | [5] 0.018 | [6] 0.057 | [7] 0.016 | [8] -0.021 | [9] 0.002 | IRAK-1-4 Inhibitor I -0.004 | ibrutinib 0.017 | [10] -0.037 | ralimetinib -0.018 | [11] 0.01 | [13] -0.057 | pinometostat 0.008 | [15] 0.03

— the supplement of paper PMC10849652
